Consider eight molecules from patent publication US20030087315A1 (MCP HAHNEMANN UNIVERSITY, published 2003).

The target of assay [1] is type I collagen. Kind of assay: phage display panning, specifically-binding particle; cycles: Type I Collagen, α1-776/796, Type I Collagen; eluent pH 2.2 buffer; 1 isolated particle.
Assay [2] addresses type I collagen. Kind of assay: phage display panning, specifically-binding particle; cycles: Type I Collagen x3; eluent α1-776/796; 10 isolated particles.
Assay [3] addresses type I collagen. Kind of assay: phage display panning, specifically-binding particle; cycles: α1-776/796, Type I Collagen, α1-776/796; eluent pH 2.2 buffer; 2 isolated particles.
Assay [4] addresses type I collagen. The experiment in a line: phage display panning, specifically-binding particle; cycles: Type I Collagen x3; eluent pH 2.2 buffer; 10 isolated particles.
The target in assay [5] is type I collagen. The experiment in a line: phage display panning, specifically-binding particle; cycles: Type I Collagen, α1-776/796, Type I Collagen; eluent pH 2.2 buffer; 5 isolated particles.
In assay [6] the target is type I collagen. The experiment in a line: phage display panning, specifically-binding particle; cycles: α1-776/796, Type I Collagen, α1-776/796; eluent pH 2.2 buffer; 1 isolated particle.
The target in assay [7] is type I collagen. The experiment in a line: phage display panning, specifically-binding particle; cycles: α1-776/796, Type I Collagen, α1-776/796; eluent pH 2.2 buffer; 4 isolated particles.

Results are given in words; binding and its absence hold for the method and conditions named. Binding can be weak; no strength is given.

Take SHPWNAQRELSV: the binding result in the assay with type I collagen [1] is on record as “binds”.
Take SHALPLTWSTAA: the binding entry with type I collagen [2] is reported as “binds”.
Regarding VHWWIPVSTGTA, the binding entry with type I collagen [3] is recorded as “binds”.
Take TFWHLTPPRGYY: the binding entry with type I collagen [3] is listed as “binds”.
With LIQPPRYSTTVS, the binding entry with type I collagen [4] and with type I collagen [5] was “binds” throughout.
Take TMATMFTRDLSN: the binding result with type I collagen [1] was “binds”.
For the molecule HSSLKLPNLSHR, the binding entry in the assay with type I collagen [6] is “binds”.
With NHVHRMHATPAY, the binding result with type I collagen [7] is “binds”.
